Measurements as given in PMC4961794.
These are yes or no findings as the source states them, for the method shown. Binding seen in cells or lysates may run through a third protein. Some results given as binding are weak or reduced against the parent protein; the word gives no strength.

Chains of the proteins cited; added tags and fusions are not shown.
UniProt Q9NRC8: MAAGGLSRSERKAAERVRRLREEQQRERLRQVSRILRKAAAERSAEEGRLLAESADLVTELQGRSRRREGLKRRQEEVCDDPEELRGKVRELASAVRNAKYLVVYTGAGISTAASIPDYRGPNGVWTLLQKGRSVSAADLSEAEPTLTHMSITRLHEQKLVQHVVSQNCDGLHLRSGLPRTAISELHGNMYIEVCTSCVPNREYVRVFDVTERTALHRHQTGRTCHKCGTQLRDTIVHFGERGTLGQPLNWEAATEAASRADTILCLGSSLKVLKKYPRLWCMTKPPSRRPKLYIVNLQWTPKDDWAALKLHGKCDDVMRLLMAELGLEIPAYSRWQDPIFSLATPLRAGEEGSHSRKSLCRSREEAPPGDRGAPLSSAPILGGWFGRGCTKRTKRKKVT
UniProt P09874: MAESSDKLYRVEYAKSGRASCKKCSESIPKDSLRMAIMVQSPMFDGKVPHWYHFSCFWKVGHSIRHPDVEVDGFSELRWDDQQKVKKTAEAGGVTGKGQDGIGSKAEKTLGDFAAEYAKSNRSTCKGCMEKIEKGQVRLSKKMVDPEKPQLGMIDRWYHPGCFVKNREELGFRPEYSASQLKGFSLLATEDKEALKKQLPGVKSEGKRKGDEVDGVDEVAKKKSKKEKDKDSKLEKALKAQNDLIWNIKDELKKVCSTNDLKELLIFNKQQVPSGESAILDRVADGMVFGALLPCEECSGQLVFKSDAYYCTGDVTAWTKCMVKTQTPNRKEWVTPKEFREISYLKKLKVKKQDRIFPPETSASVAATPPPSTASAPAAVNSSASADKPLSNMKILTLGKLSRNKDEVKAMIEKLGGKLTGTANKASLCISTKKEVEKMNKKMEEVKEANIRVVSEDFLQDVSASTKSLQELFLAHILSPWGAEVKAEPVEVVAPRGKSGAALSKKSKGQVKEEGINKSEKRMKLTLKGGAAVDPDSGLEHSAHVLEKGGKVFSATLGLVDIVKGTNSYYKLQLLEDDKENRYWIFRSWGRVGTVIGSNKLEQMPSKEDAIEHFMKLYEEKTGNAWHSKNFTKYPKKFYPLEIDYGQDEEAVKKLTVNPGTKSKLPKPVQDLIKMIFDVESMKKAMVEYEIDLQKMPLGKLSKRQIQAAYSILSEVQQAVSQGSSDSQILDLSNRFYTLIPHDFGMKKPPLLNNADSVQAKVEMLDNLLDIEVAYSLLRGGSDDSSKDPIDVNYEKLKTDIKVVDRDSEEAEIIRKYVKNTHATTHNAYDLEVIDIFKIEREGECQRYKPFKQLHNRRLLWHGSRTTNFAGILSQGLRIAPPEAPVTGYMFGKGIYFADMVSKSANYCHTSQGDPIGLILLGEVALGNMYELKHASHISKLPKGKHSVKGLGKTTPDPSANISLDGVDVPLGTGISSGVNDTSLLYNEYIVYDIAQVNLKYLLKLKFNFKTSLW

Molecular target: SIRT7 (endogenous) (human (endogenous in U2OS)) (UniProt Q9NRC8)
Assay: co-IP; U2OS whole-cell lysate immunoprecipitated with antibodies against SIRT7, then immunoblotting; cells exposed to 6 Gy of IR or not

Q: How did the binding turn out when “PARP1 (endogenous, U2OS) (from UniProt P09874 1-1014)” was run?
A: The binding was “binds”.
